Test results as given in US20260207767A1.
Substitutions are numbered along the chain they refer to. No constants are given. Whether binding was seen depends on the method and setting. Some binding calls cover weakened binding; strength is not graded here.

B1: XVT458-z2-m1 (antibody, V domains shown)
VH: QVQLVQSGAEVKKPGASVKVSCKASGYTFTNFYIHWVRQAPGQGLEWMGSIYPNYGFTAYNQKFKDRVTMTVDTSTSTAYMELRSLRSDDTAVYYCARGYSYAMDYWGQGTTVTVSS
VL: DIQMTQSPSSVSASVGDRVTITCSASQGIWGDLNWYQQKPGKAPKLLIYHTSQLHSDVPSRFSGSGSGTDFTLTISSLQPEDFATYYCQGYSKDLLTFGGGTKLEIK
B2: XVT458-z2-m5 (antibody, V domains shown)
VH: B1 VH with S50R, F57I
VL: B1 VL with W30Y, Q53S, L54R, D57G, G90A
B3: XVT458-z2-m2 (antibody, V domains shown)
VH: B1 VH with S50R
VL: B1 VL with W30Y, Q53S, D57G, G90A
B4: XVT458-z2-m4 (antibody, V domains shown)
VH: B1 VH with S50R, F57I
VL: B1 VL with W30S, Q53S, L54R, D57G
B5: XVT458-z2-m3 (antibody, V domains shown)
VH: B1 VH with S50R, F57I
VL: B1 VL with W30S, L54R
B6: XVT458-z2-m6 (antibody, V domains shown)
VH: B1 VH with F57I
VL: B1 VL with W30S

The binders below were run against recombinant cynoPD-1 (construct not stated) (cynomolgus monkey) (UniProt B0LAJ3) (assay: ELISA, SPR).

binding, binds:
B1, B2, B3, B4, B5, B6
